According to patent US7847065B2, “CXADRL1 polypeptides relating to human cancers” (Oncotherapy Science, Inc., priority 2002, dated 2010):
At least one peptide structure holds a part that was inferred or is arguable (an end, a ring closure or a residue). For part of these data: At least one structure is not confirmed: it was looked up by name or label, or the drawing left a doubt. Ends that are not written are not given here.

Tests used:
CD8+ T cells = assay: In vitro CTL induction, CTL expansion and establishment of CTL clones; format: cell-based, human; settings: for Individuals in whom native (wild-type) peptide specific CTLs were generated: HLA-A*0201 positive healthy individuals, four tested; for Established CTL clones: number of CTL clones, limiting dilution
T2 cells (HLA-A*0201) = assay: 51Cr-release cytotoxicity assay of peptide-induced CTLs on T2 cells; settings: 51Cr release assay
HT29 cells = assay: Cold target inhibition assay, hot target HT29; format: cell-based, human; settings: E/T ratio of 20
SNU475 cells = assay: Cold target inhibition assay, hot target SNU475; format: cell-based, human; settings: E/T ratio of 20
HCT116 cells = assay: Cold target inhibition assay, hot target HCT116; format: cell-based, human; settings: E/T ratio fixed to 20

Sequence | Individuals in whom native (wild-type) peptide specific CTLs were generated (CD8+ T cells) | Reaction of CTLs induced with altered peptide with the wild-type peptide on T2 cells (T2 cells (HLA-A*0201)) | Specific cell lysis against SNU475 on addition of peptide-pulsed T2 (cold target) (SNU475 cells) | further results
KMDAEHPEV [GCUD1-9V, KMDAEHPEV] | three of the four | cross-reacted | – | –
NSQPVWLCL [RNF43-721, NSQPVWLCL] | – | – | – | Established CTL clones (CD8+ T cells; HLA-A24 RNF43 9mer peptides): 13; Specific cell lysis against HT29 on addition of peptide-pulsed TISI (cold target) (HT29 cells): significantly inhibited
ALSSGLYQV [CXADRL1-9V, ALSSGLYQV] | three of the four | cross-reacted | – | –
ALSSGLYQC [CXADRL1-207, ALSSGLYQC] | only one | – | significantly inhibited | –
ALWPWLLMA [RNF43-11, ALWPWLLMA] | – | – | – | Established CTL clones (CD8+ T cells; HLA-A*0201 RNF43 peptide, listed as RNF43-11-9): four and Four; Specific cell lysis of HCT116 on addition of peptide-pulsed T2 (cold target) (HCT116 cells): significantly inhibited
KMDAEHPEL [GCUD1-196, KMDAEHPEL] | one of the four | – | significantly inhibited | –
